In PubChem BioAssay AID2685 (National Center for Advancing Translational Sciences (NCATS), 2010):
The other results are listed elsewhere or left out. Further columns of the screen follow, without active or inactive calls. The list favours compounds with an active or inconclusive main result. Potencies come from curve fits of mixed quality, noted in brackets.

Assay: qHTS Assay for Lipid Storage Modulators in Drosophila S3 Cells;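 on cell number change: cells counted by Cell Tracker Red CMTPX staining in the red channel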
Conditions: BODIPY lipid droplet fluorescence, 18-24 h; for cell number change: measured here: cell count max response, cells fed with added oleic acid
Procedure, shortened: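 Drosophila S3 cells loaded with oleic acid (400 uM, as added) and compounds at several concentrations; lipid droplets imaged by 488-nm laser-scanning cytometry, 500–530 nm intensity and object ratio to cell channel. Percent activity normalized to 20 uM Triacsin C.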

[1] = measured here: lipid fluorescence (Fed channel) AC50, cells fed with added oleic acid
[2] = measured here: cell number channel AC50, cells fed with added oleic acid

O=C(Nc1ccc(Cl)cc1)OCCn1nnnc1C(c1ccccc1Cl)N1CCOCC1 (stereo unspecified)
cell number change: -19.7%

COc1ccc(Oc2cnc3ccccc3n2)cc1
cell number change: 15.9%

O=C(CN1C(=O)NC2(CCOc3ccccc32)C1=O)c1ccc(F)cc1 (stereo unspecified)
cell number change: 3.52% | AC50 [1]: 0.82 µM [rising, partial curve, poor fit]

Cc1cccc(N2CCN(C(=O)CCCSc3nc4ccccc4[nH]3)CC2)c1C
cell number change: -4.46% | AC50 [1]: 32.6 µM [rising, partial curve, poor fit]

COc1ccc([C@H]2CC(=O)C=C(c3ccc(CO)cc3)C2)cc1
cell number change: 17.9%

COc1ccccc1CNC(=O)COc1ccccc1C
cell number change: 4.56%

COc1ccc(C(=O)COC(=O)c2sc(C)nc2C)cc1Cl
cell number change: -11%

OCC1(Cc2ccc(F)cc2)CCCN(CCCC(F)(F)F)C1 (stereo unspecified)
cell number change: 2.33% | AC50 [1]: 0.146 µM [rising, full curve, poor fit]

Cn1c(=O)c2c(SCC(=O)N3CCCCC3)nc(-c3ccccc3F)nc2n(C)c1=O
cell number change: -36.8% | AC50 [2]: 4.61 µM [falling, full curve, poor fit] | AC50 [1]: 6.51 µM [falling, single point]

CN(C)NC(=S)NC1CC2CCC1C2 (stereo unspecified)
cell number change: 6.25% | AC50 [1]: 4.61 µM [rising, single point]

Cc1cccc(NC(=O)[C@H](Cc2ccccc2)NC(=O)OCc2ccccc2)c1
cell number change: 33.3%

CC(C)CNC(=S)N1CCN(Cc2ccc3c(c2)OCO3)CC1
cell number change: 9.6%

CCCOc1c(Cl)cc(C(=O)Nc2ccc3c(c2)OCO3)cc1OCC
AC50 [2]: 0.082 µM [rising, full curve, poor fit] | AC50 [1]: 0.082 µM [rising, full curve, poor fit]

COC(=O)c1c(C)[nH]c(C(=O)COC(=O)c2c(C)noc2C)c1C
cell number change: -5.84%

COc1ccc(OC)c(C(=O)NC(CC(N)=O)c2ccc(N3CCC(Cc4ccccc4)CC3)c([N+](=O)[O-])c2)c1 (stereo unspecified)
cell number change: 4.79% | AC50 [1]: 29.1 µM [rising, partial curve, poor fit]

CCOCCCNC(=S)N1CCN(c2nc(-c3ccc(F)cc3)cs2)CC1
cell number change: -21.1% | AC50 [1]: 29.1 µM [falling, single point]

C=CCn1c(Cc2ccc(OC(C)C)c(Cl)c2)nnc1SCC(N)=O
cell number change: 4.21% | AC50 [2]: 0.13 µM [falling, full curve, poor fit]

COC(=O)c1ccccc1NC(=O)CCC(=O)N1CCSc2ccccc21
cell number change: 6.63% | AC50 [1]: 3.66 µM [rising, single point]

COC(=O)/C(=C/c1cccc([N+](=O)[O-])c1)NC(=O)c1ccc(OC)cc1
cell number change: -0.244% | AC50 [1]: 13 µM [falling, single point]

CCCc1cc(-n2ccnc2)n2c(nc3ccccc32)c1C#N
AC50 [2]: 0.326 µM [rising, full curve] | AC50 [1]: 0.411 µM [rising, full curve]

CC1CCN(C(=O)CSC2=NS(=O)(=O)c3cc(F)ccc3N2)CC1
cell number change: 25%

Cc1ccnc(NS(=O)(=O)c2ccc(NC(=O)c3cc(=O)c4ccccc4o3)cc2)n1
cell number change: -19.2%

COc1ccnc(Nc2ccc(C)c(C)c2)c1C#N
cell number change: 6.31% | AC50 [1]: 29.1 µM [falling, partial curve]

Cc1nc(-c2ccc(F)cc2)c(CC(=O)Nc2cccc(S(=O)(=O)N3CCOCC3)c2)s1
cell number change: 30.8% | AC50 [2]: 20.6 µM [rising, single point]

CC(=O)Nc1cccc(C(=O)N/N=C/c2ccccc2F)c1
cell number change: 20.4% | AC50 [1]: 6.51 µM [rising, full curve, poor fit]

COc1ccc(CN2CCCCCC2)cc1
AC50 [1]: 18.4 µM [falling, partial curve]

CC(C)COc1ccc(C(=O)NNC(=O)c2ccc(=O)[nH]c2)cc1
cell number change: -25.6% | AC50 [1]: 16.4 µM [falling, single point]

CN1CCN(C(=S)c2ccc(Cl)cc2)CC1
cell number change: -4.9%

CCOC(=O)/C(C(N)=NC)=C(\O)c1ccccc1
cell number change: 0.879% | AC50 [1]: 3.66 µM [rising, full curve, poor fit]

CCNC(=S)NNC(=O)c1c(Cl)c(C)nn1C
cell number change: -39.8% | AC50 [2]: 1.64 µM [falling, partial curve] | AC50 [1]: 0.58 µM [rising, single point]

CN(c1ccccc1)S(=O)(=O)c1cccc(NC(=O)Cc2ccc(Cl)cc2)c1
cell number change: 2.89%

O=C(NC(=S)NCc1nc2ccccc2[nH]1)c1ccc(F)cc1
cell number change: 28.8% | AC50 [2]: 0.291 µM [rising, full curve, poor fit] | AC50 [1]: 0.103 µM [rising, full curve]

O=C(Nc1ccc(C(=O)OC2CCCCC2)cc1)c1ccncc1
cell number change: -22% | AC50 [1]: 16.4 µM [rising, single point]

Cc1ccc2cc(C)c(SCC(=O)Nc3cc(C)on3)nc2c1
cell number change: 73.1% | AC50 [2]: 18.4 µM [rising, single point] | AC50 [1]: 29.1 µM [falling, single point]

CNC(=S)c1cc(C(C)(C)C)c(O)c(C(C)(C)C)c1
cell number change: -27.5% | AC50 [1]: 8.2 µM [falling, partial curve, poor fit]

CCc1nnc(NC(=O)CSc2nc3ccccc3s2)s1
cell number change: 100%

Fc1cccc(Cl)c1CSc1nnc(COc2cccc3cccnc23)o1
cell number change: 145% | AC50 [1]: 6.51 µM [rising, single point]

CCCCOc1c(Br)cc(/C=N/O)cc1OCC
cell number change: -59.6% | AC50 [2]: 8.2 µM [falling, partial curve] | AC50 [1]: 11.6 µM [falling, partial curve]

COCCNC(=S)N/N=C(\C)c1cccc([N+](=O)[O-])c1
cell number change: 15.7% | AC50 [1]: 14.6 µM [rising, partial curve]

CCN1CCN(S(=O)(=O)c2cc3c(cc2Cl)NC(=O)CO3)CC1
cell number change: 10.7% | AC50 [1]: 2.31 µM [falling, full curve]

Brc1c(CSc2nc3ccccc3o2)nc2ncccn12
cell number change: -5.4% | AC50 [1]: 6.51 µM [rising, partial curve]

Cn1cc(-c2nc3ccccc3[nH]2)c2ccccc21
cell number change: -15.7% | AC50 [1]: 10.3 µM [falling, single point]

O=C(CCNC(=O)c1ccc([N+](=O)[O-])cc1)NCc1ccccc1
cell number change: 17.3%
